Measurements: patent US20210371353A1, “FERTILIZER COMPOSITIONS AND PLANTS CONTAINING PROTOCATECHUIC ACID, AND USES THEREOF” (priority 2020, published 2021)

Test system: lettuce
Assay: PCA content analysis of lettuce leaves and soil by LC-MS-MS
Format: in vivo
Conditions: for PCA content: treatment at seeding, approximately eight weeks after sowing (table title says six weeks)

Structure (SMILES)	PCA content relative to control (leaf, control leaf 1.34 ppm)	PCA content (leaf)	PCA content relative to control (soil, control soil <0.2 ppm)	PCA content (soil)
O=C(O)c1ccc(O)c(O)c1 [PCA crystals, protocatechuic acid]	7.4×	9.88 ppm	<29.4×	5.87 ppm
O=C(O)c1ccc(O)c(O)c1 [PCA coating, protocatechuic acid]	4.4×	5.91 ppm	<14.8×	2.96 ppm
